In patent publication US12076394B2, “Cytosolic delivery of peptides using protein transduction domain mimics” (University of Massachusetts, priority 2020, dated 2024):
Not every detail of the peptide structures is certain; ends, links or a residue may be inferred.

Assays:
plasma free blood = assay: SIINFEKL delivery into plasma free whole blood, PTDM compared with R9 and Pep-1; type: cell-based, human; settings: non-covalent complex, plasma removed, 1 hour at 37° C.
whole blood = assay: Inflammatory cytokine panel (cytometric bead array) after co-delivery of SIINFEKL and CpG into whole blood; settings: supernatant 24 hours after treatment; fold change compared to untreated sample; 3 donors
[1] = test system: bone marrow derived dendritic cells; assay: Delivery into bone marrow derived dendritic cells, flow cytometry; type: cell-based, mouse; settings: 1 μM antigen, free or with PTDM at 1:10, 4 hours
Method: To test SIINFEKL delivery and presentation for T cell activation, bone marrow derived dendritic cells were differentiated from B56 mouse bone marrow for 6 days in the presence of 20 ng/mL mouse GM-CSF. After 6 days, cells were harvested and treated with 1 μM fluorescently labeled SIINFEKL or OVA both free and in complex with PTDM molar ratio of 1:10 for 4 hours.
Immature dendritic cells were differentiated from murine bone marrow according to established protocols. (Dewitte, et al. J. Control. Release 2014, 195, 138-146.) RBCs were lysed using BioLegend® lysis buffer and cells were plated at a density of 2×10^5 cells/mL in complete RPMI (listed under cell lines) with the addition of 20 ng/mL recombinant mouse GM-CSF. Cells were cultured for 6 days with the addition of 10 mL fresh media and cytokines on day 3. Non-adherent and loosely adherent cells were harvested on day 6 and cells were pelleted, counted, and plated at a density of 2×10^6 cells/mL.
THP-1 monocytes, immature dendritic cells, and bone marrow derived dendritic cells were analyzed using a BD LSR Fortessa 20X flow cytometer with five lasers and 18 channels. […] Only cells negative for 7-AAD were assessed for either uptake or presentation of markers. Multi-color flow cytometric analysis spectral overlap was corrected by appropriate compensation and analyzed using FlowJo 10.2 (v3.05470) by Tree Star, Ashland, OR, USA.

In the case of `CC[C@H](C)[C@H](NC(=O)[C@@H](NC(=O)[C@@H](N)CO)[C@@H](C)CC)C(=O)N[C@@H](CC(N)=O)C(=O)N[C@@H](Cc1ccccc1)C(=O)N[C@@H](CCC(=O)O)C(=O)N[C@@H](CCCCN)C(=O)N[C@@H](CC(C)C)C(=O)O` [SIINFEKL], the “delivery of SIINFEKL into monocytes” value (plasma free blood) is reported as “negligible delivery”, the IFN-a (whole blood) is reported as 1.0 fold change and the IFN-g (whole blood) is reported as 0.7 fold change. The IL-1B (whole blood) was 1.0 fold change, the IL-6 (whole blood) was 1.0 fold change and the IL-8 (whole blood) was 1.1 fold change. For the same compound, the IL-10 (whole blood) was 1.0 fold change, the IL-12p70 (whole blood) was 1.0 fold change and the IL-17A (whole blood) was 0.6 fold change. For the same compound, the IL-23 (whole blood) was 0.8 fold change, the IL-33 (whole blood) was 1.0 fold change and the MCP-1 (whole blood) was 1.4 fold change. The TNF-a (whole blood) was 1.0 fold change and the “uptake of fluorescently labeled SIINFEKL or OVA” value [1] was “significantly less uptake”.
